Assay results reported in the supplement of paper PMC12595434, “Development of retinoid nuclear receptor pathway antagonists through targeting aldehyde dehydrogenase 1A3” (iScience, 2025).
This is one part of the list. Single values of this set are uncertain.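 Tm was set to 64 °C where no melting was found, and many curves are irregular.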

Chains of the proteins cited; added tags and fusions are not shown. Lines headed by an entry give the natural chain unless they say otherwise; changes in a name come on top.
UniProt P46020: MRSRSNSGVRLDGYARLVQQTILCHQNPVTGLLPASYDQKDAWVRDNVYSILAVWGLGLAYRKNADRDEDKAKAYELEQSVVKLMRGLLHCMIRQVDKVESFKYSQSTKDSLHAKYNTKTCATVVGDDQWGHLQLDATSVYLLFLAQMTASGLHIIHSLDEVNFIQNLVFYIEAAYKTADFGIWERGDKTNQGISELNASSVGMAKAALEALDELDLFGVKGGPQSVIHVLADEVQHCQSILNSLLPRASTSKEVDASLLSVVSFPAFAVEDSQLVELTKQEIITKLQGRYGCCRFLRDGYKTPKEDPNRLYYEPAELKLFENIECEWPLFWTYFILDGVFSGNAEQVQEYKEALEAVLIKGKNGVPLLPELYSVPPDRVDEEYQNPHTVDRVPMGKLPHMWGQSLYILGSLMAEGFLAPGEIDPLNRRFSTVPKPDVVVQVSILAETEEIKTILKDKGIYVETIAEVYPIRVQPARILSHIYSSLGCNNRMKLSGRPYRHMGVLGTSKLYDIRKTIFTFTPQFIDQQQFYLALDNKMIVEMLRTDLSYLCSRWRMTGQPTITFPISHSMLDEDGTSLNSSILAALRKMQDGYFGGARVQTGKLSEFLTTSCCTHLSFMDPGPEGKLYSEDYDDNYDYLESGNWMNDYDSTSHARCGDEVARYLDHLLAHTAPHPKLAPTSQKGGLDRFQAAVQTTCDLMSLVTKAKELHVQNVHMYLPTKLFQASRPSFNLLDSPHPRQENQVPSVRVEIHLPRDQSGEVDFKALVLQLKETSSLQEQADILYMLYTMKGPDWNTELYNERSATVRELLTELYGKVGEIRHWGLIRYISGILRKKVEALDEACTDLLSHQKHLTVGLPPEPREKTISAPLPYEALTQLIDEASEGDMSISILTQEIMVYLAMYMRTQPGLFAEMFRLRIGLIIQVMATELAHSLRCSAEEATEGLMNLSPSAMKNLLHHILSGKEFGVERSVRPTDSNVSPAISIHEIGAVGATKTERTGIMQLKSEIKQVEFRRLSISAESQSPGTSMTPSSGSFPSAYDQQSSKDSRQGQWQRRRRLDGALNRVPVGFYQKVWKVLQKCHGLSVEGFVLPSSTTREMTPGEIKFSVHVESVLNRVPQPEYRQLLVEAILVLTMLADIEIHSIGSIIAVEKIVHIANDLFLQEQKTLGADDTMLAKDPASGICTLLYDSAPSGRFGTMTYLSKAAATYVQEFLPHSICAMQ
UniProt P46821: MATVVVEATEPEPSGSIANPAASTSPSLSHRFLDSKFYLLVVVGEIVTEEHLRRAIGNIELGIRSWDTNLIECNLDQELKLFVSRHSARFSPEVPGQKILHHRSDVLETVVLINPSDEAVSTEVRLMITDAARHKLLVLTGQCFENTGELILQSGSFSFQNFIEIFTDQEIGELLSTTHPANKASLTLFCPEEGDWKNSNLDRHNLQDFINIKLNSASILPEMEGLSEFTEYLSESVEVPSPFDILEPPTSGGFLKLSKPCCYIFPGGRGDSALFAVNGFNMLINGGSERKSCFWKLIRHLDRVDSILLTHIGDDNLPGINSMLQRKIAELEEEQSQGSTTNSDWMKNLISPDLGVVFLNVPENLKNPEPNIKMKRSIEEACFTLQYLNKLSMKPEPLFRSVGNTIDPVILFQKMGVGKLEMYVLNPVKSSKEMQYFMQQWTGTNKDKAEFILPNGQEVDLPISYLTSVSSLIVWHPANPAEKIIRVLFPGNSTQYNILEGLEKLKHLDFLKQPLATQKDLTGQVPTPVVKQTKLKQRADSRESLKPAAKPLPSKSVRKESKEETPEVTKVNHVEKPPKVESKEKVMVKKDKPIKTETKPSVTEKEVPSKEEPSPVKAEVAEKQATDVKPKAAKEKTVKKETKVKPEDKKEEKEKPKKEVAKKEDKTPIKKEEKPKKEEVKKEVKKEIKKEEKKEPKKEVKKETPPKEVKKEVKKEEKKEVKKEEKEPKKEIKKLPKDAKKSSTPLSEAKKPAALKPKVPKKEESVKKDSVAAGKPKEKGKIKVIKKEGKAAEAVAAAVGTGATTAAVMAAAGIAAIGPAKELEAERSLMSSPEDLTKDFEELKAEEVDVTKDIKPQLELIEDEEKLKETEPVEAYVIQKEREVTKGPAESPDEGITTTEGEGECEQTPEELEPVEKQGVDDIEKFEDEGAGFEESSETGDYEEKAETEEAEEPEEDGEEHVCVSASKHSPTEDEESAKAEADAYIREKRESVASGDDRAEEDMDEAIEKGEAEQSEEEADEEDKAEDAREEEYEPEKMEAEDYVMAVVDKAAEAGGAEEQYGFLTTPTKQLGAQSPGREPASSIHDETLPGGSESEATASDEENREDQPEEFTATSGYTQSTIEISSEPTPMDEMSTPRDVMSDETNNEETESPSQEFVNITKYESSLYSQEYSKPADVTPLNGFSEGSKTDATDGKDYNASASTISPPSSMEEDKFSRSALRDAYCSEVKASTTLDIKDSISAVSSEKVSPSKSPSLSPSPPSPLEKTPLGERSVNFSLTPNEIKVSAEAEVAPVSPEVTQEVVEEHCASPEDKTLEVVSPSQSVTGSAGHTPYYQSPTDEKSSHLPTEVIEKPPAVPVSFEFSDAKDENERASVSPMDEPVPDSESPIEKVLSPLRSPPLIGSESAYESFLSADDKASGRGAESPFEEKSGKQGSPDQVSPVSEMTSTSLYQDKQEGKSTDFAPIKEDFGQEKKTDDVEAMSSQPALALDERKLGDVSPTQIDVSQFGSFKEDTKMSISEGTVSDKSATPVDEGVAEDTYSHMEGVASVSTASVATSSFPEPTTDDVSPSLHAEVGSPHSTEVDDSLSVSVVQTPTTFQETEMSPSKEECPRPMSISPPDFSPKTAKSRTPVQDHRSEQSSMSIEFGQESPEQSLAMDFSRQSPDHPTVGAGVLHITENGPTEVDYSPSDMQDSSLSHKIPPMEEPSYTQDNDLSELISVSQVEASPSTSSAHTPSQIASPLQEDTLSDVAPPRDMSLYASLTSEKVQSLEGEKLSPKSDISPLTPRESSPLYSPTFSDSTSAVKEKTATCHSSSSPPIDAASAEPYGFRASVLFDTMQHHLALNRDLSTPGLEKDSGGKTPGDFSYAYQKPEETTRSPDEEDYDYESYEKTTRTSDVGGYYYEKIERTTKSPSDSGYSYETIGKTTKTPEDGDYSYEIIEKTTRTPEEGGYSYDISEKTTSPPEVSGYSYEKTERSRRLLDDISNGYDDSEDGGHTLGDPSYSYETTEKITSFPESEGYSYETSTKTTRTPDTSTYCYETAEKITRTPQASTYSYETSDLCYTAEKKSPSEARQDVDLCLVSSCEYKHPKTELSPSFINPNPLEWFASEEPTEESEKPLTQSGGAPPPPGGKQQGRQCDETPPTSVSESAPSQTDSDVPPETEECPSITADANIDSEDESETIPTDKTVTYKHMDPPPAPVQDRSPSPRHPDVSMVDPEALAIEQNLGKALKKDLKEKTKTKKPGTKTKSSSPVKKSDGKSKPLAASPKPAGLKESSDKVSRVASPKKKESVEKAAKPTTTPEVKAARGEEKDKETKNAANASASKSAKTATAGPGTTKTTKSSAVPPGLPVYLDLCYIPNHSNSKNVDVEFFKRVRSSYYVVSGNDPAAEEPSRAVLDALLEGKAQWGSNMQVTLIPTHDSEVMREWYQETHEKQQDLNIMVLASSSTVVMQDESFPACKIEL
UniProt P45985: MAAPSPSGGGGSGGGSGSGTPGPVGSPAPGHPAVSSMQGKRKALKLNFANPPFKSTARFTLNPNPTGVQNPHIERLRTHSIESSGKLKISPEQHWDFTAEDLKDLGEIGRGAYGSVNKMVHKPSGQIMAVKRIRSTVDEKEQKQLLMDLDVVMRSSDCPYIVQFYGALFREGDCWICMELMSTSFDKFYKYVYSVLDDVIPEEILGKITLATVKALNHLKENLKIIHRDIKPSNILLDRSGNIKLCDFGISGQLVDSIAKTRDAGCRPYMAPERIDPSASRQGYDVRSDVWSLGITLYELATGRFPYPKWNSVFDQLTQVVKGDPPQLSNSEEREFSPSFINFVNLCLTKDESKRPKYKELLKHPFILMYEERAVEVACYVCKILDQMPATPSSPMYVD
UniProt P51790: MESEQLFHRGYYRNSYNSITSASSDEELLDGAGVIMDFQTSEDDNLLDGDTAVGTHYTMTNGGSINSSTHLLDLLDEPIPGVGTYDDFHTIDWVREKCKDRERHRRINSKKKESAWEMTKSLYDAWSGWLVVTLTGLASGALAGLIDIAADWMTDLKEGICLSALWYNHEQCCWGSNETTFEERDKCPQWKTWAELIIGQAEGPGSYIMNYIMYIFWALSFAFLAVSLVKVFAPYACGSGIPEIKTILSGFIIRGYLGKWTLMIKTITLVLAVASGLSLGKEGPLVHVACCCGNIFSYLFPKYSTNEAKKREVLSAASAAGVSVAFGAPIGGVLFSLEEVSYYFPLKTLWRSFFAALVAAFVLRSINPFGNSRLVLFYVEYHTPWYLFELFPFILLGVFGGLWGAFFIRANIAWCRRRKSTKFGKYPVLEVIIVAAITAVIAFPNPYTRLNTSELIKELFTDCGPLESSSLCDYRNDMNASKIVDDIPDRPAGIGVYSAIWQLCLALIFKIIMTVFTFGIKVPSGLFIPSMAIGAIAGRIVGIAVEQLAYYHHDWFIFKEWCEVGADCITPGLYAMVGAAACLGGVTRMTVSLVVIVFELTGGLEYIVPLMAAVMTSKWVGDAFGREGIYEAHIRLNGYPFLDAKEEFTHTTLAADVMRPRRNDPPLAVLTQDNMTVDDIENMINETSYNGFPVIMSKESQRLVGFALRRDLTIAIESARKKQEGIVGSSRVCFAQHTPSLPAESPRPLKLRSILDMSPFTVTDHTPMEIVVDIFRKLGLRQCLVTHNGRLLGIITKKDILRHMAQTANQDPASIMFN
UniProt P50454: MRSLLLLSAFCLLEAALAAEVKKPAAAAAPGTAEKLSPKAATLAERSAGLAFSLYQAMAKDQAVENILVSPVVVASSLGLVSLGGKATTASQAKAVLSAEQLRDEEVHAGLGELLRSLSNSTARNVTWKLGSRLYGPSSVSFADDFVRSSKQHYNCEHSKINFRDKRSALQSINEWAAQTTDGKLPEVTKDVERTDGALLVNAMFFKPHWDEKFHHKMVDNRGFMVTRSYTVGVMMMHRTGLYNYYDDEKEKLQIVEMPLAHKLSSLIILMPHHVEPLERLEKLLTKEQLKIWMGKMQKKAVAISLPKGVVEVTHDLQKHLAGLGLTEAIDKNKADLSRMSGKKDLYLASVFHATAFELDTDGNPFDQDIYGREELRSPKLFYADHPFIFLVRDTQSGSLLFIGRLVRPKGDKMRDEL
UniProt P47895: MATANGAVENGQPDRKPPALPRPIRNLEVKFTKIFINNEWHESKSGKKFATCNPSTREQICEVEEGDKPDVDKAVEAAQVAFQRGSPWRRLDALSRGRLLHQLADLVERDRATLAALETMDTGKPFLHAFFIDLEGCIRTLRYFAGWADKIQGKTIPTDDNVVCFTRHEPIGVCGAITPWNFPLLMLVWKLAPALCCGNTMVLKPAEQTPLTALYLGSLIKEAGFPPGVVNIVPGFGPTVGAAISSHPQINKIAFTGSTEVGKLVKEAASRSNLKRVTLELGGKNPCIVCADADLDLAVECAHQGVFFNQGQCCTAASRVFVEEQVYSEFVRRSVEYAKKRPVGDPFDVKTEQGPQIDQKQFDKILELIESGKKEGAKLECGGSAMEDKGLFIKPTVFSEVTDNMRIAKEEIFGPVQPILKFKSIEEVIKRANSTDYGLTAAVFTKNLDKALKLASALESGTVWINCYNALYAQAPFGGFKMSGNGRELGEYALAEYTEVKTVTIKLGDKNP
UniProt P49848, whole entry: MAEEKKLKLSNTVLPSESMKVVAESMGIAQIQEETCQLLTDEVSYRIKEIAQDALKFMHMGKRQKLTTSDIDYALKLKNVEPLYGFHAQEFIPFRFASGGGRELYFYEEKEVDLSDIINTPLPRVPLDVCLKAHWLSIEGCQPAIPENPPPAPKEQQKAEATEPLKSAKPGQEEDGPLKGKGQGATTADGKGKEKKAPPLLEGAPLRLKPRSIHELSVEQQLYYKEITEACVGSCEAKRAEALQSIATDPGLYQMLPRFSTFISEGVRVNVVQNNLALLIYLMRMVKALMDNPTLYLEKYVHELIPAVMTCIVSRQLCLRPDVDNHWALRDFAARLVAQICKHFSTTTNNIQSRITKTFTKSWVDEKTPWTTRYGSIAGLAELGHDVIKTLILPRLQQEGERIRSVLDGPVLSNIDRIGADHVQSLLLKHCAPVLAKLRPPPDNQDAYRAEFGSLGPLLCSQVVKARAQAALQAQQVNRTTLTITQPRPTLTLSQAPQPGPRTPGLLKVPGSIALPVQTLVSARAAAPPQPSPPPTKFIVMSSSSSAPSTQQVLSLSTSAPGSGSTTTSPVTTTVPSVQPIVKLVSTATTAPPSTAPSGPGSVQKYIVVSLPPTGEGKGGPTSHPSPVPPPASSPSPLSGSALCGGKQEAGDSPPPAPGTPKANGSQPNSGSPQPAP

Each target was assayed with CCc1cnccc1C(=O)Nc1cc2c(cc1F)NC(=O)CC2 (assay: melting temperature shift (DMSO Tm minus MBE1-treated Tm) in cellular thermal proteome profiling; higher = less thermal stabilization by MBE1 (negative = stabilized by MBE1)). Details: A375; MBE1 concentration: 100 nM.
For PXN (UniProt P49023), the melting temperature shift was -1.74 °C. Target CCT3 (UniProt P49368) has a melting temperature shift of -0.682 °C. PHKA1 (UniProt P46020) showed a melting temperature shift of 0.169 °C. With SNCA (UniProt P37840) the melting temperature shift was -0.679 °C. For TPMT (UniProt P51580), the melting temperature shift was -0.731 °C. UniProt P49918 showed a melting temperature shift of -0.409 °C. Target CCT4 (UniProt P50991) has a melting temperature shift of -0.786 °C. For UniProt P50895, the melting temperature shift was -3.62 °C. Work on LIPA (UniProt P38571) yielded a melting temperature shift of -0.177 °C. Work on UniProt P40425 yielded a melting temperature shift of -0.692 °C. For UniProt P51157, the melting temperature shift was 1.35 °C. With UniProt P46821 the melting temperature shift was -0.693 °C. Target UniProt P45985 has a melting temperature shift of 0.763 °C. CLCN3 (UniProt P51790) was tested, and the melting temperature shift was -1.48 °C. With NT5C2 (UniProt P49902) the melting temperature shift was -0.861 °C. Target METAP2 (UniProt P50579) has a melting temperature shift of -0.788 °C. Target RBM25 (UniProt P49756) has a melting temperature shift of -1.12 °C. Work on PIP4K2A (UniProt P48426) yielded a melting temperature shift of 0.727 °C. For HADHA (UniProt P40939), the melting temperature shift was 1.01 °C. USP5 (UniProt P45974) was tested, and the melting temperature shift was -0.671 °C. In the case of MECP2 (UniProt P51608), the melting temperature shift is reported as -1.92 °C. With SMARCA4 (UniProt P51532) the melting temperature shift was -0.243 °C. RPL28 (UniProt P46779) was tested, and the melting temperature shift was -0.0611 °C. Work on NUP62 (UniProt P37198) yielded a melting temperature shift of 1.32 °C. CDK8 (UniProt P49336) was tested, and the melting temperature shift was 0.174 °C. UniProt P41743 was tested, and the melting temperature shift was 0.537 °C. In the case of MSH2 (UniProt P43246), the melting temperature shift is reported as 0.275 °C. UniProt P42898 showed a melting temperature shift of 0.293 °C. UniProt P40426 gave a melting temperature shift of 0.256 °C. LIG4 (UniProt P49917) was tested, and the melting temperature shift was -0.431 °C. MKI67 (UniProt P46013) was tested, and the melting temperature shift was -0.513 °C. For SERPINH1 (UniProt P50454), the melting temperature shift was -0.812 °C. UniProt P43251 gave a melting temperature shift of -2.43 °C. ALDH1A3 (UniProt P47895) showed a melting temperature shift of -1.54 °C. PSMC4 (UniProt P43686) gave a melting temperature shift of -1.33 °C. Target CDK9 (UniProt P50750) has a melting temperature shift of 1.4 °C. Target TAF6 (UniProt P49848) has a melting temperature shift of -0.996 °C.

Same assay, conditions: A375; MBE1 concentration: 1 uM
Target PXN (UniProt P49023) has a melting temperature shift of -3.07 °C. Target CCT3 (UniProt P49368) has a melting temperature shift of -0.347 °C. PHKA1 (UniProt P46020) showed a melting temperature shift of 0.343 °C. SNCA (UniProt P37840) gave a melting temperature shift of -1.54 °C. For TPMT (UniProt P51580), the melting temperature shift was 0.476 °C. In the case of UniProt P49918, the melting temperature shift is reported as -0.355 °C. With CCT4 (UniProt P50991) the melting temperature shift was -0.749 °C. UniProt P50895 was tested, and the melting temperature shift was -0.58 °C. Target LIPA (UniProt P38571) has a melting temperature shift of -1.8 °C. UniProt P40425 gave a melting temperature shift of -0.39 °C. Target UniProt P51157 has a melting temperature shift of -0.934 °C. UniProt P46821 gave a melting temperature shift of 0.691 °C. Target UniProt P45985 has a melting temperature shift of 0.348 °C. In the case of CLCN3 (UniProt P51790), the melting temperature shift is reported as -2.32 °C. NT5C2 (UniProt P49902) showed a melting temperature shift of -0.415 °C. METAP2 (UniProt P50579) gave a melting temperature shift of -0.25 °C. RBM25 (UniProt P49756) was tested, and the melting temperature shift was -0.585 °C. Work on PIP4K2A (UniProt P48426) yielded a melting temperature shift of -0.965 °C. HADHA (UniProt P40939) showed a melting temperature shift of 0.464 °C. USP5 (UniProt P45974) gave a melting temperature shift of 0.00611 °C. MECP2 (UniProt P51608) gave a melting temperature shift of -0.418 °C. SMARCA4 (UniProt P51532) was tested, and the melting temperature shift was -0.275 °C. RPL28 (UniProt P46779) showed a melting temperature shift of 0.159 °C. In the case of NUP62 (UniProt P37198), the melting temperature shift is reported as 0.946 °C. CDK8 (UniProt P49336) gave a melting temperature shift of 0.778 °C. With UniProt P41743 the melting temperature shift was 0.464 °C. MSH2 (UniProt P43246) showed a melting temperature shift of -0.0672 °C. UniProt P42898 showed a melting temperature shift of 0.299 °C. UniProt P40426 showed a melting temperature shift of 0.336 °C. Work on LIG4 (UniProt P49917) yielded a melting temperature shift of 0.503 °C. With MKI67 (UniProt P46013) the melting temperature shift was -0.673 °C. For SERPINH1 (UniProt P50454), the melting temperature shift was 0.704 °C. UniProt P43251 gave a melting temperature shift of -2.77 °C. Work on ALDH1A3 (UniProt P47895) yielded a melting temperature shift of -1.25 °C. In the case of PSMC4 (UniProt P43686), the melting temperature shift is reported as 1.09 °C. With CDK9 (UniProt P50750) the melting temperature shift was 0.0977 °C. TAF6 (UniProt P49848) showed a melting temperature shift of -0.623 °C.
